These are yes or no findings as the source states them, for the method shown. In cells and extracts the contact can be indirect. Some entries that bind do so weakly or less than the wild type.

Amino acid sequences for entries named in this document (tags omitted). A change or cut given only in a name is not applied to a line headed by its entry.
UniProt P06730: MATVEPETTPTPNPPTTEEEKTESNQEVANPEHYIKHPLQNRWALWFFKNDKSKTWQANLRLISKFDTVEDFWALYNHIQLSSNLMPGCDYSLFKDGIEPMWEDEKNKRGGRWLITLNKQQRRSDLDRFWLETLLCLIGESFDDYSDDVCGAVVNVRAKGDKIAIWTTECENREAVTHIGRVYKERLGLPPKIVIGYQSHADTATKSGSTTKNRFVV

The target of the assay is His-tagged eIF4E (purified) (human) (UniProt P06730). Briefly: pulldown: peptide on TentaGel resin, His-tagged eIF4E, Western blot.

Regarding YPYAASPA (synthesized on and bound to TentaGel resin) [peptide-8 (linear)], the binding entry is “binds”.

The record behind these values is patent US20200087345A1.
